Source: paper PMC11074156
Results are given in words; binding and its absence hold for the method and conditions named. Binding seen in cells or lysates may run through a third protein. Some entries that bind do so weakly or less than the wild type.

The chains behind the UniProt entries cited, without tags or fusion partners. Where a name states a change or a piece, a line headed by the entry shows the natural chain unless it says otherwise. A line that says so, or that is headed by a name, gives the form on record, which may keep a tag or linker. Residues count along the entry.
UniProt P11021: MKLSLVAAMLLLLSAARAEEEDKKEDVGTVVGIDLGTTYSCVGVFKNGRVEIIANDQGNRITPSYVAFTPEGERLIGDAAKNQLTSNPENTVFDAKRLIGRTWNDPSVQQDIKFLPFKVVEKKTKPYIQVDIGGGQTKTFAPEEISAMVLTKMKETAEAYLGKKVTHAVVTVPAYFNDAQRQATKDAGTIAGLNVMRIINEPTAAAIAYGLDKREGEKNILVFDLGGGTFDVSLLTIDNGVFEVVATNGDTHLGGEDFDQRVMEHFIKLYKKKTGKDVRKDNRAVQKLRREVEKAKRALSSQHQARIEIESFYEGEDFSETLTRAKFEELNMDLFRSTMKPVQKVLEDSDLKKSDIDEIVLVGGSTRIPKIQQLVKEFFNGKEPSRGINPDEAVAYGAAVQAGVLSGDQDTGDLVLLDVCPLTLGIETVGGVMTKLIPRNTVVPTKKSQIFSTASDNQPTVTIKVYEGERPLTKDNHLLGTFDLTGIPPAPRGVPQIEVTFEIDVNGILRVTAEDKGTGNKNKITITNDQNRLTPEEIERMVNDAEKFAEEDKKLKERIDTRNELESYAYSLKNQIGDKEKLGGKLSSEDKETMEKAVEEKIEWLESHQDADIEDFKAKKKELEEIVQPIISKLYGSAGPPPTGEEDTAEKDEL
EGFP-full length GRP78 (wild type): residues 19-654 of P11021
EGFP-NBD (GRP78 nucleotide binding domain with the hydrophobic linker): residues 19-419 of P11021
EGFP-SBD (GRP78 substrate binding domain): residues 420-654 of P11021
EGFP-full length GRP78 R470E (P11021, form named): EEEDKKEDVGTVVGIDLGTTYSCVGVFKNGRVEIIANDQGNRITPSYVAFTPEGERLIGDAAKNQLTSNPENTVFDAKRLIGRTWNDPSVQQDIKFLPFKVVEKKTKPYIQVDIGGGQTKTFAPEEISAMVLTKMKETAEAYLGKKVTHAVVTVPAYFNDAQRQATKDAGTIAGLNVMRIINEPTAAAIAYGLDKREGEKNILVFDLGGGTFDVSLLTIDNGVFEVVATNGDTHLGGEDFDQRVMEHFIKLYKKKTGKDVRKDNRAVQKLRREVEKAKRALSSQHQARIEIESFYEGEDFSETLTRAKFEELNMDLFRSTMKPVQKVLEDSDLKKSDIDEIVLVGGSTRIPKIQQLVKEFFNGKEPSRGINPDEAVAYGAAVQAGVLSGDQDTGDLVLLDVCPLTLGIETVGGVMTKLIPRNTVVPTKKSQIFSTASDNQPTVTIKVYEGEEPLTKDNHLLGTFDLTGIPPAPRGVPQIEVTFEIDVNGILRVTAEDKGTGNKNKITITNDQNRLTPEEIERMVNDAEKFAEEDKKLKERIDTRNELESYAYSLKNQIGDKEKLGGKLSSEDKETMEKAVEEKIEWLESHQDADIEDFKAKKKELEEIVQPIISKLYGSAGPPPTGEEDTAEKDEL
EGFP-full length GRP78 R492E (P11021, form named): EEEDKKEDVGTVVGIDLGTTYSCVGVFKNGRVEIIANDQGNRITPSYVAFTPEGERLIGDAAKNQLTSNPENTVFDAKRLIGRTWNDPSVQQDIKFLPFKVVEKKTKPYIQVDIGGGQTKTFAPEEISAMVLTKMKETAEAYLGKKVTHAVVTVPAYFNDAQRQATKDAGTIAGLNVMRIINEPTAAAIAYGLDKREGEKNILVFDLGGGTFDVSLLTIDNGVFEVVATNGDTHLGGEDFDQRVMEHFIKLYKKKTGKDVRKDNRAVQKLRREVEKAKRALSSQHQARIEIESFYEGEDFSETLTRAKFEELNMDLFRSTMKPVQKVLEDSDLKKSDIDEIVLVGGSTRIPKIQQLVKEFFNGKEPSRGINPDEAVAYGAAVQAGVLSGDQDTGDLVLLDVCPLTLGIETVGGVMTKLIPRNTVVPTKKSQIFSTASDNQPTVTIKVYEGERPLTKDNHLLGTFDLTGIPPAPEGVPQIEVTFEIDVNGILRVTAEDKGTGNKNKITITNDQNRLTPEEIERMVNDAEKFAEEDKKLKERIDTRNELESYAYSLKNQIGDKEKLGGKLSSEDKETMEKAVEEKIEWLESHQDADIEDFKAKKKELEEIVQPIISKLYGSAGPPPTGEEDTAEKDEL
EGFP-full length GRP78 V429Q (P11021, form named): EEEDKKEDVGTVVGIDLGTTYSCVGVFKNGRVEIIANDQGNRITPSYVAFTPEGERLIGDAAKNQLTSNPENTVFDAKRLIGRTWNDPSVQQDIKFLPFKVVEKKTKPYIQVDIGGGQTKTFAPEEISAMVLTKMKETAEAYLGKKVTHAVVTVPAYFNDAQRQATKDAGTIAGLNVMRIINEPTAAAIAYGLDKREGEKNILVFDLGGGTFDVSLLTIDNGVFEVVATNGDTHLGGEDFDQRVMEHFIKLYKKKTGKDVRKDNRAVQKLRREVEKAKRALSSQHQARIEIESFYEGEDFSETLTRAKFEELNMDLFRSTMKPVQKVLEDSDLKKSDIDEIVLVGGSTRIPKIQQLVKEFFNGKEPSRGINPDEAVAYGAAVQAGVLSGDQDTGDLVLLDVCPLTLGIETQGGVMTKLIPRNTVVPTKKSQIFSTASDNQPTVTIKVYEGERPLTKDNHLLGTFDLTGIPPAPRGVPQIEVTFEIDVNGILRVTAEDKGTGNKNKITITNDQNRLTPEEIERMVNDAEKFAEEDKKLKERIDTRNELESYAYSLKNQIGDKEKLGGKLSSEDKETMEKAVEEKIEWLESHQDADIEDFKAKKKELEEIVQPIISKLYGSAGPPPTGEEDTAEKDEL
EGFP-full length GRP78 K585A (P11021, form named): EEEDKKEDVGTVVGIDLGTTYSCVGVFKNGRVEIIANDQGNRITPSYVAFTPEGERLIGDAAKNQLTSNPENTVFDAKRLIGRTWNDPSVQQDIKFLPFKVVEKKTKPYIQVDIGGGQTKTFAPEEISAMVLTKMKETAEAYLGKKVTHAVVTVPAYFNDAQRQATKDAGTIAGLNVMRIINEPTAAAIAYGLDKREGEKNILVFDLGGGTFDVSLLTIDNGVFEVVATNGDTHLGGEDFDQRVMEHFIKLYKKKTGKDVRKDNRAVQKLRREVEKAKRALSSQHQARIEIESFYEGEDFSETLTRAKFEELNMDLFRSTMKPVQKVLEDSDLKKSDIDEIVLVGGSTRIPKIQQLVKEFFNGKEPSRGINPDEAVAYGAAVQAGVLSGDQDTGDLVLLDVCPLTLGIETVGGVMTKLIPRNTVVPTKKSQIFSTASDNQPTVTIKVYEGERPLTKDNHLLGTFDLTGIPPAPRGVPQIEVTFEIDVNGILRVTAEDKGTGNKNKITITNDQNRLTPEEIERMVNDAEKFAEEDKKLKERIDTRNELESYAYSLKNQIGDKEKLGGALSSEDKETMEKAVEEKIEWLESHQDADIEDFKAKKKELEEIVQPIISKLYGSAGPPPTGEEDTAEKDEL
EGFP-full length GRP78 T518A (P11021, form named): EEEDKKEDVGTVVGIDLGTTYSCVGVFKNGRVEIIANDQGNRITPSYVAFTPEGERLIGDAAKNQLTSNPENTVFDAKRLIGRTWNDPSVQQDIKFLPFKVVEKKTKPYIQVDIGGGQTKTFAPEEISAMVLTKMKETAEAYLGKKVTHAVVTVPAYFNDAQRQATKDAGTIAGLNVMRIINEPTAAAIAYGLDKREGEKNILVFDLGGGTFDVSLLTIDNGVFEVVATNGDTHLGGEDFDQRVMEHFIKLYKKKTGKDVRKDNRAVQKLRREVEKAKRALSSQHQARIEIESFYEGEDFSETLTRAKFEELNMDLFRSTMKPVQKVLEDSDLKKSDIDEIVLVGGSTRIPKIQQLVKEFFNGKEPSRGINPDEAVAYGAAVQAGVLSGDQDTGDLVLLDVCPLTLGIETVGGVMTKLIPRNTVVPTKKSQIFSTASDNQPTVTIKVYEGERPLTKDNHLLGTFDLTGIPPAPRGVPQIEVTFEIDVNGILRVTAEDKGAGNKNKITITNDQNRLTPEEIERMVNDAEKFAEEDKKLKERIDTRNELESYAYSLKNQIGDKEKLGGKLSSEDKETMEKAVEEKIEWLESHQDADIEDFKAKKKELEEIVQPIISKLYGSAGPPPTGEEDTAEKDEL
EGFP-full length GRP78 H477E (P11021, form named): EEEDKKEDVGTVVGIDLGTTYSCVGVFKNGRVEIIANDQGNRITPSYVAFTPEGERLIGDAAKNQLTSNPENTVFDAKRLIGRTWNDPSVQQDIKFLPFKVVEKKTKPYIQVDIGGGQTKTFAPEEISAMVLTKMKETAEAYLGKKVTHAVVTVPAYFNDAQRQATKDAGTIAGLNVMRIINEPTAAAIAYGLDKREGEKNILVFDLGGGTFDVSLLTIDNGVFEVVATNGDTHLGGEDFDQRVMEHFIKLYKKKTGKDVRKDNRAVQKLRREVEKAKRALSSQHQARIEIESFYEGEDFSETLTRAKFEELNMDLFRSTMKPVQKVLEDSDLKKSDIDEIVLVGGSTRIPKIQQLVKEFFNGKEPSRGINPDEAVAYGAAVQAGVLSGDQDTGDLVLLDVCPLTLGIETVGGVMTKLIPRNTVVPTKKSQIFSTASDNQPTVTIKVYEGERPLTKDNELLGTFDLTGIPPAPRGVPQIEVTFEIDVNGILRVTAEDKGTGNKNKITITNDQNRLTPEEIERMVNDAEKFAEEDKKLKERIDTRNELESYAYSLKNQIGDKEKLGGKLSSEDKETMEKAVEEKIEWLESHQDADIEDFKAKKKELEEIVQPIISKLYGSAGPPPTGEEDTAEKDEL
EGFP-full length GRP78 K621A (P11021, form named): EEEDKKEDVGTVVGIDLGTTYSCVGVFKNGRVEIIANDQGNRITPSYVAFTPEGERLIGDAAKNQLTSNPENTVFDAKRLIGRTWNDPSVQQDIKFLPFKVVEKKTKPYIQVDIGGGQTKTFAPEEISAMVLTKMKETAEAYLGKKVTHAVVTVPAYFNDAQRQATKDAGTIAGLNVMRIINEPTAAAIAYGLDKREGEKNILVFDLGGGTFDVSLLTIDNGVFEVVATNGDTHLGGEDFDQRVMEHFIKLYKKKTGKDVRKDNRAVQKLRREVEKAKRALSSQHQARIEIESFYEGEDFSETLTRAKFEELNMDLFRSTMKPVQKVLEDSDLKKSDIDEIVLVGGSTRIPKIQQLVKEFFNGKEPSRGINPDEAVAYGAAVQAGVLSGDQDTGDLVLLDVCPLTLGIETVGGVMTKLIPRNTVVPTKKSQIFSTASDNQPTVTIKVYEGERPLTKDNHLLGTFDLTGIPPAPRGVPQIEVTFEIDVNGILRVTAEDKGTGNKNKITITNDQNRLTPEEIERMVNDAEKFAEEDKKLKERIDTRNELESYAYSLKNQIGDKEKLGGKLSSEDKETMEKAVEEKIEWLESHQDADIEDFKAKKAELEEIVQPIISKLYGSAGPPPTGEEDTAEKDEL
UniProt P18850: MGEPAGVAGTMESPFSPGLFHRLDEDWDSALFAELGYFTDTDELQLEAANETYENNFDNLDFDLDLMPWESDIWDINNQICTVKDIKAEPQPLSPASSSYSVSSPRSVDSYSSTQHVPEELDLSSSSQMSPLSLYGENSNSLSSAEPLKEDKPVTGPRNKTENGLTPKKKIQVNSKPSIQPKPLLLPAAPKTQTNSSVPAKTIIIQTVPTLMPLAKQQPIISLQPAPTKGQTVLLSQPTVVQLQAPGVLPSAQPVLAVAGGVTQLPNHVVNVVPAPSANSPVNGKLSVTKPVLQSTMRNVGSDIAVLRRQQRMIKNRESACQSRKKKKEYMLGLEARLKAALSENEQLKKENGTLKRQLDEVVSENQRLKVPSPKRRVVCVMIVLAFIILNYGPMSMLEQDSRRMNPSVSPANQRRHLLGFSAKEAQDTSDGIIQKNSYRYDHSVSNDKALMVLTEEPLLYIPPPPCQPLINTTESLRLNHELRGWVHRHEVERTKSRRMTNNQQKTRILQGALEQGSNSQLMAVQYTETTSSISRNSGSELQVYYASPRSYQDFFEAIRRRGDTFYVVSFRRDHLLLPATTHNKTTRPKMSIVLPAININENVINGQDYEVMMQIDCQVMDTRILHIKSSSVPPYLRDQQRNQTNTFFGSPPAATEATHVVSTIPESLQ
UniProt A0A142I5B9, residues 795-1146: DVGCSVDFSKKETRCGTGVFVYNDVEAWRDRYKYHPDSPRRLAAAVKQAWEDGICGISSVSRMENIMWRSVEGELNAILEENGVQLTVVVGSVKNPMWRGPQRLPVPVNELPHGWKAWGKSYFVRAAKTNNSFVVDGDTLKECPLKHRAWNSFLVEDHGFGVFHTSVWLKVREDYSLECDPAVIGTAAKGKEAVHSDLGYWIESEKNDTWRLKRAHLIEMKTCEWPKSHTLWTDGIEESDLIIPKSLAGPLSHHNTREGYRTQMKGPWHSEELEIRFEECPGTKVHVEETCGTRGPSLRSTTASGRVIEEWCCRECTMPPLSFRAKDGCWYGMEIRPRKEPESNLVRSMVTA

Legend:
Test in all cases: co-IP; EGFP-GRP78 fusion as bait co-expressed with the prey in HEK293T/17 for 48 h; lysate in 50 mM HEPES pH 7.4, 150 mM NaCl, 1 mM EGTA, 10% glycerol, 1% Triton X-100; GFP-Trap beads, 4 °C, 1 h; western blot
[1] = molecular target: EGFP-full length GRP78 R470E (human) (UniProt P11021)
[2] = molecular target: EGFP-full length GRP78 R492E (human) (UniProt P11021)
[3] = molecular target: EGFP-full length GRP78 V429Q (human) (UniProt P11021)
[4] = molecular target: EGFP-full length GRP78 (wild type) (human) (UniProt P11021)
[5] = molecular target: EGFP-full length GRP78 K585A (human) (UniProt P11021)
[6] = molecular target: EGFP-full length GRP78 T518A (human) (UniProt P11021)
[7] = molecular target: EGFP-full length GRP78 H477E (human) (UniProt P11021)
[8] = molecular target: EGFP-full length GRP78 K621A (human) (UniProt P11021)
[9] = molecular target: EGFP-SBD (GRP78 substrate binding domain) (human) (UniProt P11021)
[10] = molecular target: EGFP-NBD (GRP78 nucleotide binding domain with the hydrophobic linker) (human) (UniProt P11021)

binding [2]	binding [6]	Substance	binding [1]	binding [3]	binding [4]	binding [5]	binding [7]	binding [8]	binding [9]	binding [10]
binds	binds	ATF6 (activating transcription factor 6), endogenous (from UniProt P18850 1-670)	binds	binds	binds	binds	binds	binds	–	–
–	–	ZIKV NS1 protein, full length (pcDNA3.1+_ZIKV NS1) (from UniProt A0A142I5B9 795-1146)	binds	binds	binds	binds	binds	binds	binds weakly	binds weakly
